Data as given in US20100196361A1, “Method of inhibition of vascular development using an antibody” (DYAX CORP., priority 2003, published 2010).
No constants are given. Whether binding was seen depends on the method and setting. Some binding calls cover weakened binding; strength is not graded here.

By UniProt entry, the sequences of proteins in these tests, tags left out. Where a name states a change or a piece, a line headed by the entry shows the natural chain unless it says otherwise. Residues count along the entry.
UniProt P35590: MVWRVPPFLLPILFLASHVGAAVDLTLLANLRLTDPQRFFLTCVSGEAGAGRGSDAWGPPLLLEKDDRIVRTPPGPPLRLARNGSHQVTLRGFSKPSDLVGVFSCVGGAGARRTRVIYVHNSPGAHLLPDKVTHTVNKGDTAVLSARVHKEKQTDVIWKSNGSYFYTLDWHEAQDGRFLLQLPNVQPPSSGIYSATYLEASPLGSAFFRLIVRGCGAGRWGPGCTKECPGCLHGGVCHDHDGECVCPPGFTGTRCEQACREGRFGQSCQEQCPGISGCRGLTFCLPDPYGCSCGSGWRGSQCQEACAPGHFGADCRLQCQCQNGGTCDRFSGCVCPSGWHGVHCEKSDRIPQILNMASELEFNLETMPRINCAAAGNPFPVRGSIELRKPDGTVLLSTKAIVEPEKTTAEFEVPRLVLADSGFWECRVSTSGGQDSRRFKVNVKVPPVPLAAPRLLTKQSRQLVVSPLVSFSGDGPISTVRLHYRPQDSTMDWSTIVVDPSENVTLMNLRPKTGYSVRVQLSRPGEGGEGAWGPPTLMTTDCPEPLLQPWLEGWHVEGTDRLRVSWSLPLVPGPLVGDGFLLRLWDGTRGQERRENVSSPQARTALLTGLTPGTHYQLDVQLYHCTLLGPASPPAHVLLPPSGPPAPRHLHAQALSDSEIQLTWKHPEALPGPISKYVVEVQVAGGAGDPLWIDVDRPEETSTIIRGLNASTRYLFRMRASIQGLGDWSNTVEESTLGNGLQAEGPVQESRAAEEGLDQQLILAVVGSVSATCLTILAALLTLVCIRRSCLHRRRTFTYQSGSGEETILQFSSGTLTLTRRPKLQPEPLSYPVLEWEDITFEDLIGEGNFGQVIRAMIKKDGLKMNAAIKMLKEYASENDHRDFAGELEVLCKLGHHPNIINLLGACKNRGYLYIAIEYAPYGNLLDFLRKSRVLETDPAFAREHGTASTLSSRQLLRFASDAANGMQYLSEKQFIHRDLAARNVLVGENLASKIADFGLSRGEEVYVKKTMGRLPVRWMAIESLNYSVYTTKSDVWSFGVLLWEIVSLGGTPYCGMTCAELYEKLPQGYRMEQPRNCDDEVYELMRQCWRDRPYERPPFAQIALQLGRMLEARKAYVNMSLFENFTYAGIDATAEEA
UniProt Q06806, residues 23-1134: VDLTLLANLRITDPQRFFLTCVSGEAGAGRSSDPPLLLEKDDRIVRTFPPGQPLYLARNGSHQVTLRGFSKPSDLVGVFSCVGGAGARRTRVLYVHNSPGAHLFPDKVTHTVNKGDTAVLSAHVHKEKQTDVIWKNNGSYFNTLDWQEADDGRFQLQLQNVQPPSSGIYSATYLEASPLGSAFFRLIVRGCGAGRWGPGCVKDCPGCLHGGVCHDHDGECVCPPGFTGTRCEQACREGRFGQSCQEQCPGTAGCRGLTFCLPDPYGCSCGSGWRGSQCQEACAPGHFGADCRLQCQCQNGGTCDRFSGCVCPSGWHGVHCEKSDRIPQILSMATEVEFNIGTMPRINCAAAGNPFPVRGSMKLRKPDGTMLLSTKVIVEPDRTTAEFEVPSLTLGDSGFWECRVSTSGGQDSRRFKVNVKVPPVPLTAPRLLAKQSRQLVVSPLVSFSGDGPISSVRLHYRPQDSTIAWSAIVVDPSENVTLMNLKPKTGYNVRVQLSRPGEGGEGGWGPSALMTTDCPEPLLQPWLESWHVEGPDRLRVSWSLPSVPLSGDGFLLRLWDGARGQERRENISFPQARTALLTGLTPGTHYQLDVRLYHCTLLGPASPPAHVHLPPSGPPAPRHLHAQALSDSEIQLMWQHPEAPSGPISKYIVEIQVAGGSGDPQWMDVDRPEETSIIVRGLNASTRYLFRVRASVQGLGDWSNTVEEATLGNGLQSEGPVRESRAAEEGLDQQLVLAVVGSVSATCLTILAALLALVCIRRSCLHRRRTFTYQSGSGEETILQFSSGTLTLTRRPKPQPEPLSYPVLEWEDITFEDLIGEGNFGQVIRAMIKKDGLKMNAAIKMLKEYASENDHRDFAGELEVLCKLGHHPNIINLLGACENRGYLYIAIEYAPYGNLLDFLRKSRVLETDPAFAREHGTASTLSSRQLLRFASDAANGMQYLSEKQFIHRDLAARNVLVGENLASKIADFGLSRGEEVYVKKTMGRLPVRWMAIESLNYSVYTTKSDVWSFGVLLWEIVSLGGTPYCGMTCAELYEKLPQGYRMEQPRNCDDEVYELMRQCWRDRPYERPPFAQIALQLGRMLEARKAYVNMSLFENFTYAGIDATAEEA

Assays:
[1] = molecular target: endogenous human Tie1 (primary endothelial cells HDMVEC/HDMEC, HUVEC, HMEC; human tissue sections; SW480 tumor cells) (human) (UniProt P35590); assay: immunoprecipitation from HUVEC lysates, western blot with goat anti-Tie1
[2] = molecular target: mouse Tie1 on mouse endothelial cells (mouse) (UniProt Q06806); assay: immunohistochemistry, formalin-fixed SW480 xenograft from mouse, biotinylated E3 IgG1 10 ug/ml
[3] = molecular target: endogenous human Tie1 (primary endothelial cells HDMVEC/HDMEC, HUVEC, HMEC; human tissue sections; SW480 tumor cells) (human) (UniProt P35590); assay: as above
[4] = molecular target: V5-tagged full length human Tie1 expressed in COS1 cells (pcDNA3-Tie1-V5) (human) (UniProt P35590); assay: WB, Tie1-transfected COS1 cells
[5] = molecular target: endogenous human Tie1 (primary endothelial cells HDMVEC/HDMEC, HUVEC, HMEC; human tissue sections; SW480 tumor cells) (human) (UniProt P35590); assay: WB, HDMEC
[6] = molecular target: endogenous human Tie1 (primary endothelial cells HDMVEC/HDMEC, HUVEC, HMEC; human tissue sections; SW480 tumor cells) (human) (UniProt P35590); assay: WB, IP and immunofluorescence
[7] = molecular target: V5-tagged full length human Tie1 expressed in COS1 cells (pcDNA3-Tie1-V5) (human) (UniProt P35590); assay: WB, IP and immunofluorescence
[8] = molecular target: endogenous human Tie1 (primary endothelial cells HDMVEC/HDMEC, HUVEC, HMEC; human tissue sections; SW480 tumor cells) (human) (UniProt P35590); assay: IF, HDMEC
[9] = molecular target: endogenous human Tie1 (primary endothelial cells HDMVEC/HDMEC, HUVEC, HMEC; human tissue sections; SW480 tumor cells) (human) (UniProt P35590); assay: confocal microscopy of fixed HUVEC, biotinylated antibody 10 ug/ml
[10] = molecular target: recombinant human Tie1-Fc (extracellular domain of human Tie1 fused to human Fc) (human) (UniProt P35590); assay: SPR (BIAcore), IgG coupled to CM5 chip, Tie1/Fc as analyte
[11] = molecular target: endogenous human Tie1 (primary endothelial cells HDMVEC/HDMEC, HUVEC, HMEC; human tissue sections; SW480 tumor cells) (human) (UniProt P35590); assay: immunohistochemistry, frozen human tissue sections, biotinylated IgG 10 ug/ml
[12] = molecular target: endogenous human Tie1 (primary endothelial cells HDMVEC/HDMEC, HUVEC, HMEC; human tissue sections; SW480 tumor cells) (human) (UniProt P35590); assay: immunohistochemistry, human lung and lung carcinoma sections
[13] = molecular target: endogenous human Tie1 (primary endothelial cells HDMVEC/HDMEC, HUVEC, HMEC; human tissue sections; SW480 tumor cells) (human) (UniProt P35590); assay: immunohistochemistry, human breast and breast carcinoma sections
[14] = molecular target: endogenous human Tie1 (primary endothelial cells HDMVEC/HDMEC, HUVEC, HMEC; human tissue sections; SW480 tumor cells) (human) (UniProt P35590); assay: immunohistochemistry, human kidney and hypernephroma sections
[15] = molecular target: V5-tagged full length human Tie1 expressed in COS1 cells (pcDNA3-Tie1-V5) (human) (UniProt P35590); assay: IF, Tie1-transfected COS1 cells
[16] = molecular target: endogenous human Tie1 (primary endothelial cells HDMVEC/HDMEC, HUVEC, HMEC; human tissue sections; SW480 tumor cells) (human) (UniProt P35590); assay: immunohistochemistry, human skin and melanoma sections

binding [1]: binds
binding [2]: binds
binding [3]: binds
binding [4]: binds
binding [5]: binds
binding [6]: binds
binding [7]: binds
binding [8]: binds
binding [9]: binds
binding [10]: binds
binding [11]: binds
binding [12]: binds
binding [13]: binds
binding [14]: binds
binding [15]: binds
binding [16]: binds
B1: E3 IgG (parental anti-Tie1 antibody E3, DX-2200) (antibody, V domains shown)
VH: EVQLLESGGGLVQPGGSLRLSCAASGFTFSMYGMVWVRQAPGKGLEWVSVISPSGGNTGYADSVKGRFTISRDNSKNTLYLQVNSLRAEDTAVYYCARAPRGYSYGYYYWGQGTLVTVSS
VL: DIQMTQSPLSLSASVGDRVTITCRASQGIGHYLAWYQQKPGKVPKLLIYTASTLQSGVPSRFSGSGSGTDFTLTINSLQPEDVATYYCQQFNSYPHTFGQGTRLDIK
